The values that follow come from paper PMC12903445.

The target of experiment [1] is ULP1d-C (C-terminal region of ULP1d), Venus-half fusion (A. thaliana). The experiment is described as follows: split reporter; BiFC with Venus halves (VENn/VENc) in N. benthamiana leaf epidermal cells co-infiltrated with A. tumefaciens GV3101; HC-Pro co-expressed; both orientations tested.
The target is the same in experiment [2]. The experiment is described as follows: co-IP; N. benthamiana leaves co-expressing HA- and cMYC-tagged (Venus-half) constructs; total protein extracts precipitated with anti-HA magnetic beads (HA-trap, Chromotek); blot with anti-cMYC.

Where a chain is given by its changes, count along the chain named. Names may count otherwise. No constants are given. Whether binding was seen depends on the method and setting. In cells and extracts the contact can be indirect. Binding can be weak; no strength is given. Sequences can lack the tags named with a protein.

B1: αKNL2-C^Mut-SUMO (SUMOylation-deficient αKNL2-C: K378R, K474R, K511R, SIMs 547–551 and 568–572 deleted), Venus-half fusion (domain or fragment, UniProt F4KCE9)
chain: NYSGTKVKSAENKRRIDASKLQSPTSNVAEHSKEGLNNAKSNDVEKDVCVAINNEVISPVKGFGKRLSGTDVERLTSKNATKESLTSVQRKGRVKVSKAFQDPLSKGKSKRSEKTLQSNSNVVEPMNHFRSEAEEAEENLSWEKIKRRIDFDVEVTPEKKVKQQKTNAASTDSLGQKRSRSGRLEFWRNQIPVYDMDRNDGSETNSAPSKGKGSDSRKRRNLKIK
Turning to B1, the binding entry in experiment [1] is “no binding”.

B2: αKNL2-C (C-terminal region of Arabidopsis KINETOCHORE NULL2, aa 364–598), Venus-half fusion (domain or fragment, UniProt F4KCE9 364-598)
chain: NYSGTKVKSAENKRKIDASKLQSPTSNVAEHSKEGLNNAKSNDVEKDVCVAINNEVISPVKGFGKRLSGTDVERLTSKNATKESLTSVQRKGRVKVSKAFQDPLSKGKSKKSEKTLQSNSNVVEPMNHFRSEAEEAEENLSWEKIKRKIDFDVEVTPEKKVKQQKTNAASTDSLGQKRSRSGRVLVSSLEFWRNQIPVYDMDRNLIQVKDGSETNSAPSKGKGSDSRKRRNLKIK
Consider B2, for which the binding result in experiment [1] and in experiment [2] was “binds” each time.

B3: αKNL2-C^K474R/K511R, Venus-half fusion (domain or fragment, UniProt F4KCE9 364-598)
chain: B2 chain with K111R, K148R
For the molecule B3, in experiment [1], the binding result was “no binding”.
